Results are given in words; binding and its absence hold for the method and conditions named.
Biological target: C-terminal domain (CTD) of the human zinc transporter 8 (hZnT8), wild type (human) (UniProt Q8IWU4)
Assay: SEC; Superdex 75, protein 10 mg/mL, 20 mM Tris pH 7.5, 150 mM NaCl with 5 mM EDTA; both purified

binding: no binding (condition: with 5 mM EDTA)
B1: C-terminal domain (CTD) of the human zinc transporter 8 (hZnT8), wild type (domain or fragment, UniProt Q8IWU4 281-369, looked up)
chain: SLNYSGVKELILAVDGVLSVHSLHIWSLTMNQVILSAHVATAASRDSQVVRREIAKALSKSFTMHSLTIQMESPVDQDPDCLFCEDPCD
notes: human zinc transporter 8 (hZnT8, SLC30A8), C-terminal domain, Ser281-Asp369; Expressed as His-MBP-TEV-CTD from a pET28a-based vector; N-terminal tags removed with TEV protease; Measured mass 9.828 kDa; also called WT CTD; hZnT8 CTD; source: E. coli BL21 (DE3), purified (Ni-NTA, TEV cleavage, Hi-Trap Q anion exchange, repeated Ni-NTA, amylose resin); not shown: His tag, N-terminal, cleaved; MBP, …

Reference: publication PMC7037036, “C-Terminal Domain of the Human Zinc Transporter hZnT8 Is Structurally Indistinguishable from Its Disease Risk Variant (R325W)” (International Journal of Molecular Sciences, 2020)
